Results of single-concentration screens

Amino acid sequences for entries named in this document (tags omitted).
UniProt P9WPC5, whole entry: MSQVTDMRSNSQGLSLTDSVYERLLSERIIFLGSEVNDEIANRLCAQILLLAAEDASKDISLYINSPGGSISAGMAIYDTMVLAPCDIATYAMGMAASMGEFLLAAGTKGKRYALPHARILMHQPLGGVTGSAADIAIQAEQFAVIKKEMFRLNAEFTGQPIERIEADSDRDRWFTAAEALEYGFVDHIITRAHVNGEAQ
UniProt P9WPC3, whole entry partner: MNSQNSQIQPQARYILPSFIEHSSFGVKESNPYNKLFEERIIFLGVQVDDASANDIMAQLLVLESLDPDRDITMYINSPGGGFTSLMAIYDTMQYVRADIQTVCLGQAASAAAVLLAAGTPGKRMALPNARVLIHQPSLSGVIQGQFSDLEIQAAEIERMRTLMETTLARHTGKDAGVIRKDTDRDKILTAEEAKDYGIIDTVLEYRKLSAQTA

The values are deposited in ChEMBL (CHEMBL3988442, “University of Dundee, Small-Polar-MMV Screening Library” (2021)).

The filed quantity is “Percent Effect” (%). The record does not define 0% and 100%; most values in the screen are far below 50% and negative numbers occur (in some assays of this library far below -100). The compounds are a random part of those screened.

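ClpP1P2, Mycobacterium tuberculosis (UniProt P9WPC5 and UniProt P9WPC3). Protease assay of ClpP1P2, read by the AMC dye that it sets free. Tested at 50 µM. Higher reads as stronger inhibition, judged from the few compounds that gave an IC50. Most other retested compounds had strongly negative values. Of about 69,000 compounds tested this way, about 10 (0.015%) reached 50% or more in at least one test.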

Cc1c(C2CCOC(C)(C)C2)nc(N)c(C#N)c1-c1ccc(O)cc1 (stereo not shown) read 21.29%.
CC(C)=CCN1C(=O)[C@H]2CC[C@@H]1CN(c1ncccc1F)C2 read -5.606%.
CN(Cc1ccon1)C(=O)C1CC(=O)N(Cc2cccnc2)C1 (stereo not shown) read 3.713%.
O=C(NCC1CN(c2ncccn2)Cc2nccn2C1)c1cccnc1 (stereo not shown) read -1.982%.
CCN(Cc1cnn(C)c1)S(=O)(=O)c1ccc(NC(C)=O)cc1 read 1.27%.
O=C(N[C@@H]1CN(Cc2ccsc2)[C@@H]2CCCO[C@@H]21)C1CC1 read 8.829%.
CN1CCN(C(=O)N2CC[C@@](O)(c3ccccc3)[C@H]3CCCC[C@@H]32)CC1 read -9.766%.
CS(=O)(=O)N1CCOC2(CCCN(c3ncc(F)cn3)C2)C1 (stereo not shown) read -13.96%.
Cc1ccc(OCC(O)COC2CCOCC2)c(Br)c1 (stereo not shown) read -9.993%.
CC(C)c1nc(C(=O)N2CCOCC2CC(=O)c2ccco2)cs1 (stereo not shown) read 2.802%.
O=C(O)C1CCCN(c2nc3c(-c4ccccc4)csc3c(=O)[nH]2)C1 (stereo not shown) read 15.75%.
Cc1ccc(CSc2nc(N)cc(NCCC(=O)N3CCCC3)n2)cc1 read -8.656%.
Cc1noc([C@H]2C[C@H]3CN(C(=O)Cc4ccsc4)CC[C@H]3O2)n1 read 0.005558%.
Cc1cccc(C)c1OC1CCN(Cc2ccn(C)c(=O)c2)CC1 read -7.956%.
O=C(CN1C(=O)CCC1=O)NCc1cc(C2CC2)n(C2CCCC2)n1 read 6.529%.
Cc1cc(NC(=O)CNCc2csc(-c3cnccn3)n2)ccc1Cl read -0.3972%.
Cc1cc(CN(Cc2ccccc2)C(C)CN2CCOCC2)no1 (stereo not shown) read -13.04%.
Cc1cc(C(=O)NCCN2CCCCCC2)nn1C(C)(C)C read -9.495%.
O=C1CCSCC(C(=O)N2CCC3(CC2)OCCO3)N1 (stereo not shown) read -14.25%.
Cn1cnc(S(=O)(=O)NCCCN2CCCC2)c1Cl read -7.392%.
O=C(O)[C@@H]1CN(Cc2c[nH]c(CC3CCCC3)n2)C[C@H]1c1ccccn1 read -9.052%.
CC(NC(=O)NC1CCN(Cc2ccccn2)CC1)c1nncn1C (stereo not shown) read -1.884%.
COC(=O)N1CCC(CNS(=O)(=O)c2cnn(C)c2)CC1 read -21.82%.
CCC(=O)N1CCN(c2nc(C)nc3c(C)nn(C)c23)CC1 read 2%.
COC(=O)CN(C(=O)C(C)c1c(F)cccc1F)c1cccc(C)n1 (stereo not shown) read -0.09779%.
CC(=O)N1CCC(c2cccc(NC3CCOCC3)n2)CC1 read -37.29%.
O=C1OCCN1CCCN1CCCC1c1ccc(O)cc1 (stereo not shown) read -2.205%.
CC(C)Nc1nc2c(c(NC3CC3)n1)CCN(C(=O)C1CCOC1)CC2 (stereo not shown) read -16.57%.
Cc1cccc(Cl)c1NC(=O)Cn1cc(C(=O)O)ccc1=O read 5.987%.
Cc1csc(CCNC(=O)C2CCN(CC(N)=O)CC2)n1 read 4.291%.
COc1ccc(-c2ccc(C3CNCCO3)nc2)cc1 (stereo not shown) read -2.191%.
O=C(NCc1cccnc1)C1=NN(c2ccccc2)C(=O)CN1 read 9.515%.
Cn1ncc(C(=O)N2CCCC(n3cccn3)C2)c1C1CC1 (stereo not shown) read -0.01571%.
Cc1noc2nc(C3CCCN(Cc4cccnc4)C3)cc(C(F)F)c12 (stereo not shown) read -4.052%.
O=C1CC[C@H]2CN(C3CCOCC3)CC[C@H]2N1CCC1=CCCCC1 read -4.684%.
O=C(CCC(=O)Nc1ccccc1)NCC(=O)c1ccc(F)cc1F read 3.566%.
CCOc1ccc(C(=O)N(Cc2cnn(C)c2)C(C)C)cc1OCC read -18.49%.
COC(=O)C(C)(C)NC(=O)C1CC(=O)N(C2CC2)C1 (stereo not shown) read -8.198%.
COc1ccc(F)cc1CN1CCN(Cc2nccn2C)C(C)C1 (stereo not shown) read 10.82%.
CCn1c(CN2CCCC2)nnc1C1CCN(Cc2cc(C)no2)CC1 read 3.419%.
CC(=O)c1cn(CC(=O)N2CCC(O)(CO)CC2)c2ccccc12 read -2.97%.
CCCN(Cc1cccnc1)C1CC(C)(C)NC(C)(C)C1 read -4.175%.

3 of the entries, repeated:

| structure | effect |
|---|---|
| `Cc1csc(CCNC(=O)C2CCN(CC(N)=O)CC2)n1` | 4.291% |
| `CC(=O)c1cn(CC(=O)N2CCC(O)(CO)CC2)c2ccccc12` | -2.97% |
| `COc1ccc(-c2ccc(C3CNCCO3)nc2)cc1` (stereo not shown) | -2.191% |